The target of the assay is human α7 acetylcholine receptor (α7 AChR) (human) (UniProt P36544). In words: radioimmunoprecipitation assay (RIA); only the binder purified.

Amino acid sequences for entries named in this document (tags omitted). Residues count along the entry.
UniProt P36544, residues 23-502: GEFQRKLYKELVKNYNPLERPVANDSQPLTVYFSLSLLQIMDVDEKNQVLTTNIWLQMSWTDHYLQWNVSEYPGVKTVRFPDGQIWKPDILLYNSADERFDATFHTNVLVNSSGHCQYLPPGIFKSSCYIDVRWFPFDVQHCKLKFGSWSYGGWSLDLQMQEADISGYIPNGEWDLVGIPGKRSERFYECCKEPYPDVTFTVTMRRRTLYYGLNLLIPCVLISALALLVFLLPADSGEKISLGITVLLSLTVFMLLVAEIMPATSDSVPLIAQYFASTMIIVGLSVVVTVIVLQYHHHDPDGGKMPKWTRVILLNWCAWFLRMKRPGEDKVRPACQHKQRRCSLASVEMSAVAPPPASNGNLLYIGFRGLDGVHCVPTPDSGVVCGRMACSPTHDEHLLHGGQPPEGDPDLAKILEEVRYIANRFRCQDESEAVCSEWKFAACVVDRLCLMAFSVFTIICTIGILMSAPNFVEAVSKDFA
UniProt P60615, residues 22-95: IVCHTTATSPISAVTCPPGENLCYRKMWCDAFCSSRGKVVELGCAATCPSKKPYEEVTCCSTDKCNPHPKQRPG

No constants are given. Whether binding was seen depends on the method and setting. Some binding calls cover weakened binding; strength is not graded here.

As for “iodine 125-labelled α-bungarotoxin (from UniProt P60615 22-95) (ligand)”, the binding result was “binds”.

For the origin of these results see publication PMC6283580.
